Earlier results as cited in patent US20240228463A1, “SODIUM CHANNEL INHIBITORS AND METHODS OF DESIGNING SAME” (Genentech, Inc., priority 2021, published 2024).

Conditions: administered topically (Lidoderm patch); cited from earlier work

CCN(CC)CC(=O)Nc1c(C)cccc1C [lidocaine]
plasma concentrations: about 1 μM
